In publication PMC12527940, “Conformational plasticity of a BiP–GRP94 chaperone complex” (Nature Structural & Molecular Biology, 2025):
These are yes or no findings as the source states them, for the method shown. Some entries that bind do so weakly or less than the wild type.

Amino acid sequences for entries named in this document (tags omitted). A change or cut given only in a name is not applied to a line headed by its entry. Residues count along the entry.
UniProt P08113, residues 73-802: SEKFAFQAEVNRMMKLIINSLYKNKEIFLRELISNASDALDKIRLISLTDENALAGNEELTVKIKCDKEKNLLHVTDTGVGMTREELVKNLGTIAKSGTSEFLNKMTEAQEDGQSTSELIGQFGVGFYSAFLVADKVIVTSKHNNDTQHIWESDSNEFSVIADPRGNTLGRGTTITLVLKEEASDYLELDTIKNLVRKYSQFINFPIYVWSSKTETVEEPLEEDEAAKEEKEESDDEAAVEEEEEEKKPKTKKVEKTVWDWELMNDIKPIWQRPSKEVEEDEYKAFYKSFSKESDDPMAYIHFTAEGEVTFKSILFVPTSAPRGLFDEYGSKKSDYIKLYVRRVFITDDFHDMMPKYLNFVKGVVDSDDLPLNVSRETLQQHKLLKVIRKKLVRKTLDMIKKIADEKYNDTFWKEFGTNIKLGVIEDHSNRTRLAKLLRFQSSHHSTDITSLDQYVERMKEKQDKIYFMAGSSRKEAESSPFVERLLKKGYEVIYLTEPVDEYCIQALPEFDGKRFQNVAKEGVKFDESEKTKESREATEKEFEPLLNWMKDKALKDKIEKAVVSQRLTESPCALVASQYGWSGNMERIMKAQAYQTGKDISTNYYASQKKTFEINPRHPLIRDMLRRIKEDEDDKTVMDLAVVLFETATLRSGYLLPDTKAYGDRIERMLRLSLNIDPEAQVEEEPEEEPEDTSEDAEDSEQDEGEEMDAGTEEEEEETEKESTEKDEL

Biological target: GRP94 Δ72^noPT (UniProt P08113)
Assay: cross-linking; XL-MS: DSBU crosslinking (4 µM each), high-molecular-weight SDS–PAGE bands digested and analysed by LC–MS/MS, 5% FDR on residue pairs; GRP94 Δ72^noPT samples with 100 µM PU-WS13; both purified

binding: binds
Substance: GRP94 Δ72^noPT (from UniProt P08113 73-802) (domain or fragment)
